Assay results as given in PMC4417160.
Numbering of substitutions follows the chain as printed. For some of these results: Where a protein sequence is shown, tags need not be part of it. For some of these results: Construct, isoform or probe ends are uncertain for at least one entry. For some of these results: Where cells or extracts were used, other partners may take part. For some of these results: Negatives hold for the conditions tested. For some of these results: At least one verdict was read from the data and is not stated in words by the source.

Experiments:
[1] = system: RBM7 (NEXT subunit) + SKIV2L2 (NEXT subunit) + ZCCHC8 (NEXT subunit); test: pull-down, LC-MS/MS; details: HEK293 extract; pull-down: HSB, 1 h at 30 C; protein in an extract; label: biotin, 5'
[2] = molecular target: T1, ZC3H18 (Homo sapiens (HEK293)) (UniProt Q86VM9); test: pull-down, LC-MS/MS; details: HEK293 extract; pull-down: HSB, 1 h at 30 C; protein in an extract; label: biotin, 5'
T1 sequence (looked up, limits assumed): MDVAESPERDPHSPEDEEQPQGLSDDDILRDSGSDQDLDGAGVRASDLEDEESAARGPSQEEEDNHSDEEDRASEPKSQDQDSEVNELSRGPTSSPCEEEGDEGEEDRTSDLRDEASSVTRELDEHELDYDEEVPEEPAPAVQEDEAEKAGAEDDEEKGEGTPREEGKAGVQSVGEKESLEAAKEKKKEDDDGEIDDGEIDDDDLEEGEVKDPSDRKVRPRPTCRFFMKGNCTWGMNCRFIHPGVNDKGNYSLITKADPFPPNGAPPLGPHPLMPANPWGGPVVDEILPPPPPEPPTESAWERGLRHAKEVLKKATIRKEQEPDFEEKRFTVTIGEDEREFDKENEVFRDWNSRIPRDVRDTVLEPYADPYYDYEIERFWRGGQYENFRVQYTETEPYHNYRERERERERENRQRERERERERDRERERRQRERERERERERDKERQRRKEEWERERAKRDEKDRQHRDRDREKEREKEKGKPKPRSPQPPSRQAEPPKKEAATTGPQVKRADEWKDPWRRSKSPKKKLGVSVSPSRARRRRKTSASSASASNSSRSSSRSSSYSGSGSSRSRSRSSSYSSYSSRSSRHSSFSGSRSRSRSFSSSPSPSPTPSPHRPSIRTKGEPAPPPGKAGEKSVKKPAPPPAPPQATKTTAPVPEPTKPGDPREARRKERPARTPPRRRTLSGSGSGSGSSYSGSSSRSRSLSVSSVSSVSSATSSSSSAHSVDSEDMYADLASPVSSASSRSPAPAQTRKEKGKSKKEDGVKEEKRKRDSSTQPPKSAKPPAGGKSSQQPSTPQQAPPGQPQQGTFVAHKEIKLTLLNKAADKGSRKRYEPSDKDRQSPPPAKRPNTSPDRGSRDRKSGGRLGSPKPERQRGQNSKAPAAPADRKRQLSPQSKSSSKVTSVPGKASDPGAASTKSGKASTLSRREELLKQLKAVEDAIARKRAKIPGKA

[3] = molecular target: T2, RBM7 RRM (Homo sapiens (cDNA from HEK293T-Rex)) (UniProt Q9Y580); test: fluorescence anisotropy; details: printed as >>150; FA: 50 mM Tris pH 7.0 (also given as pH 8), 200 mM NaCl, 10 mM 2-mercaptoethanol, 20 C; recombinant protein; residues 6-94; protein details: 6xHis-Smt3 removed with Ulp1; label: 5' fluorescein
T2 sequence (looked up): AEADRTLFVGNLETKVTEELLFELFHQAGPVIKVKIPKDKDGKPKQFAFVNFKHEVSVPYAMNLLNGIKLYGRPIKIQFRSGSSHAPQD

[4] = molecular target: T3, RBM7 RRM F13A (Homo sapiens) (UniProt Q9Y580); test: fluorescence anisotropy; details: printed as >>200; FA: 50 mM Tris pH 7.0 (also given as pH 8), 200 mM NaCl, 10 mM 2-mercaptoethanol, 20 C; recombinant protein; residues 6-94; protein details: 6xHis-Smt3 removed with Ulp1; label: 5' fluorescein
T3 sequence (looked up): T2 sequence (looked up) with F8A

[5] = molecular target: RBM7 RRM F52A (Homo sapiens) (UniProt Q9Y580); test: fluorescence anisotropy; details: printed as >>200; FA: 50 mM Tris pH 7.0 (also given as pH 8), 200 mM NaCl, 10 mM 2-mercaptoethanol, 20 C; recombinant protein; residues 6-94; protein details: 6xHis-Smt3 removed with Ulp1; label: 5' fluorescein

GAACAUAUUUCACCAACAUUAUACUGUGUC [Btn-Random RNA]
binding result [1]: no binding | binding result [2]: no binding

UUUUUUUUUUUUUUUUUUUUUUUUUUUUUU [Btn-Oligo U30]
binding result [1]: binds | binding result [2]: binds

CCCCCCC [C7]
Kd [3]: > 150 µM

CUCUCUC [Y7]
Kd [4]: > 200 µM | Kd [5]: > 200 µM
